# From paper doi:10.1101/2024.10.13.618066
# Sequences of proteins named here, by UniProt entry; tags and fusion partners are left off.
# UniProt A6NHR9: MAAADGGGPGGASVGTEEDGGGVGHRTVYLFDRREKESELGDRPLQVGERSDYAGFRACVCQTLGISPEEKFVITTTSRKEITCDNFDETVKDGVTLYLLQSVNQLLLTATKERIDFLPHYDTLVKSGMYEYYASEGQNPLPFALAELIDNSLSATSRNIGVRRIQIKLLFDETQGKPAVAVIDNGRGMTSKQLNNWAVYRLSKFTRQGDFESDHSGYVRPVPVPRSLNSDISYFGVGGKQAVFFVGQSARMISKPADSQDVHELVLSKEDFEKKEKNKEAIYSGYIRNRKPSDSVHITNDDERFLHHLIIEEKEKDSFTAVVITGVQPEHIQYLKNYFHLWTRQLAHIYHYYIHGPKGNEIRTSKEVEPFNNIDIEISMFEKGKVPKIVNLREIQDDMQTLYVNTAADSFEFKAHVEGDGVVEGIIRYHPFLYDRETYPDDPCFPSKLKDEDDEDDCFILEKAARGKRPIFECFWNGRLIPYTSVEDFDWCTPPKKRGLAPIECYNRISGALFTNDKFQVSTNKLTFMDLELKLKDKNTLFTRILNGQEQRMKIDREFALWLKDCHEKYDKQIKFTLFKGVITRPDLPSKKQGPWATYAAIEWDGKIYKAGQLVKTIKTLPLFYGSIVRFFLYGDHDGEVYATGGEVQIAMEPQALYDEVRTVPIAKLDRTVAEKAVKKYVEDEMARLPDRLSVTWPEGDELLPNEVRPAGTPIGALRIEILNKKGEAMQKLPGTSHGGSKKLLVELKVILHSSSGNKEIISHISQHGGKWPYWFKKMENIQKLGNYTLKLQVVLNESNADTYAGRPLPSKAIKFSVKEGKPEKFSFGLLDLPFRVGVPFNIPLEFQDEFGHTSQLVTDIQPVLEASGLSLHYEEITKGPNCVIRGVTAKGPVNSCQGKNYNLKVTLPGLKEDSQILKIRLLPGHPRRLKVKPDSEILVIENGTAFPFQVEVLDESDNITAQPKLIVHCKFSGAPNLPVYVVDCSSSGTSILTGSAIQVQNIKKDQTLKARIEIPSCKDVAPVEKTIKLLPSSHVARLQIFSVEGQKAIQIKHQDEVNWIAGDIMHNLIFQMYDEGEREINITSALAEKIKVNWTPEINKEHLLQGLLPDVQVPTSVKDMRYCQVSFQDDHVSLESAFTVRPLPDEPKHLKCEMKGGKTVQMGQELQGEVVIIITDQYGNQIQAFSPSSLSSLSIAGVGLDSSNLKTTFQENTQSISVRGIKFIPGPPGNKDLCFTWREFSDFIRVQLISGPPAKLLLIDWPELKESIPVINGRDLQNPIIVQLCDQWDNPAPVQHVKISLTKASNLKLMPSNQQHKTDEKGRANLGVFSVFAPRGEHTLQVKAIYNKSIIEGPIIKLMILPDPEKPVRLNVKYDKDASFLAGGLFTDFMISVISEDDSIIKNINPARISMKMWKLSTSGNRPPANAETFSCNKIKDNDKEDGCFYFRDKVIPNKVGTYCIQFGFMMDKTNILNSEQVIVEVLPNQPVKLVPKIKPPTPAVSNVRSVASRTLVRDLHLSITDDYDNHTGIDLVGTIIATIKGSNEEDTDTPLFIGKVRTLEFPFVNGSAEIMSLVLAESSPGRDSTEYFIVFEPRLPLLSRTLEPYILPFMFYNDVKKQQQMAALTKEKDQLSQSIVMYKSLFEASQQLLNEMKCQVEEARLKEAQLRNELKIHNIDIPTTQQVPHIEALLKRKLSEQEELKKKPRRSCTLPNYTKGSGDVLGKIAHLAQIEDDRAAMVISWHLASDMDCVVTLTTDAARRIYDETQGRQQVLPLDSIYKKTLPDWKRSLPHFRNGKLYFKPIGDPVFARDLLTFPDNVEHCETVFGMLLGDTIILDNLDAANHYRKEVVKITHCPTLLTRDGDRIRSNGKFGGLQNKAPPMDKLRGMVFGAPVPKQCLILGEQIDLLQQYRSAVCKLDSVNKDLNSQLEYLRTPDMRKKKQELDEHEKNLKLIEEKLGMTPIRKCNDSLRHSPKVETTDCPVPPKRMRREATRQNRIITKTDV
# UniProt Q9Y265: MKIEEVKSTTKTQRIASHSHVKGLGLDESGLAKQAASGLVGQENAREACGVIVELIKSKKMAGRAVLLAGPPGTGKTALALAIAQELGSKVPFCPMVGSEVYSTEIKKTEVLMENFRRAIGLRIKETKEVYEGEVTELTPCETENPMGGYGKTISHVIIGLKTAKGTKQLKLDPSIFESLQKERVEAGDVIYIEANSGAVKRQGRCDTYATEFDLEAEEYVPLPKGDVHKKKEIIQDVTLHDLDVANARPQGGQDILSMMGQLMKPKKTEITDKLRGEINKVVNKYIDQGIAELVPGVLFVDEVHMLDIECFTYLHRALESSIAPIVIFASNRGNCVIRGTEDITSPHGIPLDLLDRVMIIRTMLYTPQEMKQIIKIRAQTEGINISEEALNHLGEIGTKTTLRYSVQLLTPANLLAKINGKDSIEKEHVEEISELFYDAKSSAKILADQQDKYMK
# UniProt Q13263: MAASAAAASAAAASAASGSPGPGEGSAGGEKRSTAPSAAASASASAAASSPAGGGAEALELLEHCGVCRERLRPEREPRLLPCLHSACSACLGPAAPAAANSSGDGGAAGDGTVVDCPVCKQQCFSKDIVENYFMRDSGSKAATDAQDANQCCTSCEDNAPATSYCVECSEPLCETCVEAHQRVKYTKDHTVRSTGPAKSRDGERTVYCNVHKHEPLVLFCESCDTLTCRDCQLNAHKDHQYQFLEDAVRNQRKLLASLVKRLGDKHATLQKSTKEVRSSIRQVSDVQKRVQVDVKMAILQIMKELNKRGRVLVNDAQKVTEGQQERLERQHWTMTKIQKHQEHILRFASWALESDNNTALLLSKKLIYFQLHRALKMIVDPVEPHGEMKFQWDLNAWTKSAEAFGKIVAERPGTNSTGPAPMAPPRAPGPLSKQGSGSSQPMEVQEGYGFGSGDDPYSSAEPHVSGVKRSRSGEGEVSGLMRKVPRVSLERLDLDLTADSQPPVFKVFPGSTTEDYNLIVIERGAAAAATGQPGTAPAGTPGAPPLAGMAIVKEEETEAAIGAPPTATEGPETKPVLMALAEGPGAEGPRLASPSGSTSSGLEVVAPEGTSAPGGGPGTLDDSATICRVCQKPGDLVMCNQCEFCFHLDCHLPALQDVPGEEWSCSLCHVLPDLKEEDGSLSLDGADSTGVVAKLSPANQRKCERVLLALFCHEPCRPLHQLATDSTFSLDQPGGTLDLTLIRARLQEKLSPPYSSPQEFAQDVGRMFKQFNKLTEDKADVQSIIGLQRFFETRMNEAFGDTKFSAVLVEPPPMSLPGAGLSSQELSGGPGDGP
# B1: LRIF1 (endogenous) (protein, UniProt Q5T3J3 1-769)
# chain: MSNNLRRVFLKPAEENSGNASRCVSGCMYQVVQTIGSDGKNLLQLLPIPKSSGNLIPLVQSSVMSDALKGNTGKPVQVTFQTQISSSSTSASVQLPIFQPASSSNYFLTRTVDTSEKGRVTSVGTGNFSSSVSKVQSHGVKIDGLTMQTFAVPPSTQKDSSFIVVNTQSLPVTVKSPVLPSGHHLQIPAHAEVKSVPASSLPPSVQQKILATATTSTSGMVEASQMPTVIYVSPVNTVKNVVTKNFQNIYPKPVTEIAKPVILNTTQIPKNVATETQLKGGQHSQAAPVKWIFQDNLQPFTPSLVPVKSSNNVASKILKTFVDRKNLGDNTINMPPLSTIDPSGTRSKNMPIKDNALVMFNGKVYLLAKKGTDVLPSQIDQQNSVSPDTPVRKDTLQTVSSSPVTEISREVVNIVLAKSKSSQMETKSLSNTQLASMANLRAEKNKVEKPSPSTTNPHMNQSSNYLKQSKTLFTNPIFPVGFSTGHNAPRKVTAVIYARKGSVLQSIEKISSSVDATTVTSQQCVFRDQEPKIHNEMASTSDKGAQGRNDKKDSQGRSNKALHLKSDAEFKKIFGLTKDLRVCLTRIPDHLTSGEGFDSFSSLVKSGTYKETEFMVKEGERKQQNFDKKRKAKTNKKMDHIKKRKTENAYNAIINGEANVTGSQLLSSILPTSDVSQHNILTSHSKTRQEKRTEMEYYTHEKQEKGTLNSNAAYEQSHFFNKNYTEDIFPVTPPELEETIRDEKIRRLKQVLREKEAALEEMRKKMHQK
# Target: GFP-SMCHD1 (wild type) (human) (UniProt A6NHR9)
# Assay: affinity purification with mass spectrometry
row,binding,Molecule
1,binds,"HNRNPK (endogenous, HEK293T, HeLa and U2OS cells) (from UniProt P61978 1-463)"
2,binds,RUVBL1 (endogenous) (from UniProt Q9Y265 1-456)
3,binds,"TRIM28 (endogenous, HEK293T, HeLa and U2OS cells) (from UniProt Q13263 1-835)"
4,binds,B1

# These are yes or no findings as the source states them, for the method shown. Binding seen in cells or lysates may run through a third protein. A yes stands for co-enrichment or nearness to the bait. Other partners may have been found.
